This note sets out measurements from article PMC8079021.

Chains of the proteins cited; added tags and fusions are not shown. Lines headed by an entry give the natural chain unless they say otherwise; changes in a name come on top. Residues count along the entry.
UniProt Q03178: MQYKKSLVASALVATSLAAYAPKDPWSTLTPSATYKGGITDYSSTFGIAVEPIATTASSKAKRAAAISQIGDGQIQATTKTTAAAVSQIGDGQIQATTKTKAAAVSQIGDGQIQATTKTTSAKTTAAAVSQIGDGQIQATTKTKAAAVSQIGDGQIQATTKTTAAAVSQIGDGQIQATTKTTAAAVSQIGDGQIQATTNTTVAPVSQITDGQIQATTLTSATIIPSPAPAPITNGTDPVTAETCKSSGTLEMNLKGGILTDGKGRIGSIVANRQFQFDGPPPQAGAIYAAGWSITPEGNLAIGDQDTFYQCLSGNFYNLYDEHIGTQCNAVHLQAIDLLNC
UniProt P0CS90, residues 24-654: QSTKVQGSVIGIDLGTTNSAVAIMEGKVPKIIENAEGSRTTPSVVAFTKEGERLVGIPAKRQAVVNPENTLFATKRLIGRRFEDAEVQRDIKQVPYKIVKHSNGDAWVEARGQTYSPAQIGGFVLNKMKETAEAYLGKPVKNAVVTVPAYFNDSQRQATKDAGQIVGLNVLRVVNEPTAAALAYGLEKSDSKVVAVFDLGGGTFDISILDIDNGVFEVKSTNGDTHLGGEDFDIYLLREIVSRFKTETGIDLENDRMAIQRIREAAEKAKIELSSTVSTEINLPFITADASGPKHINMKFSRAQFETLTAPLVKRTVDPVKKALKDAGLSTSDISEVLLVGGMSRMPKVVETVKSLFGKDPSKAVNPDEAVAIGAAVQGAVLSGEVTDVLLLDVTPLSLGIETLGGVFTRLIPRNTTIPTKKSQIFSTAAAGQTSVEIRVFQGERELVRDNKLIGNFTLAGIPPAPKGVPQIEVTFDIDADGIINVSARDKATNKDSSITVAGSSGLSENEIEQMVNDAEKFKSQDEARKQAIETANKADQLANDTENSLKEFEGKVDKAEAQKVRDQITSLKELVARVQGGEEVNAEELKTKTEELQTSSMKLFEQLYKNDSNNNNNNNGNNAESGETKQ

These are yes or no findings as the source states them, for the method shown. Binding seen in cells or lysates may run through a third protein. These calls come from enrichment with a bait or labelling near it, and not all partners need be listed. For some assays here: No binding means not detected with the bait. Where a sequence is shown, tags or fusion partners need not be part of it.

T1: Mrn1 (endogenous MRN1 gene tagged with Sbp, TEV protease cleavage site and Halo-tag) (Saccharomyces cerevisiae) (UniProt Q08925)
T1 sequence: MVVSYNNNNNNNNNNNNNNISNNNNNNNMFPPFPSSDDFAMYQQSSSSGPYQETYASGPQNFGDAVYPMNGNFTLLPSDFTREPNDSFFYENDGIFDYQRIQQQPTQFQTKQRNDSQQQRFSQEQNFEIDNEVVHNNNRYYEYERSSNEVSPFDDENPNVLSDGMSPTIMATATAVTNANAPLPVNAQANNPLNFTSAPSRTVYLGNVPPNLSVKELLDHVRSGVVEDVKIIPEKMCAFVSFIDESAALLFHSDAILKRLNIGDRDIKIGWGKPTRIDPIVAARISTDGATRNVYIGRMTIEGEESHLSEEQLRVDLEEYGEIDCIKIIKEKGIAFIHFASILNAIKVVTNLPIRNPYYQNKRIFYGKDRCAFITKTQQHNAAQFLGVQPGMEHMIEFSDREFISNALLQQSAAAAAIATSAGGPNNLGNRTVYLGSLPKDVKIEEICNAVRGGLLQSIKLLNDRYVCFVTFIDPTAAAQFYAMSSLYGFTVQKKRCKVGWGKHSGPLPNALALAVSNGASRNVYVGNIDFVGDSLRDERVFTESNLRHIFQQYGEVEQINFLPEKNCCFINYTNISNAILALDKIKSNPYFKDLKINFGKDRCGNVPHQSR

B1: Lsm1 (protein, UniProt P47017 1-172)
chain: MSANSKDRNQSNQDAKRQQQNFPKKISEGEADLYLDQYNFTTTAAIVSSVDRKIFVLLRDGRMLFGVLRTFDQYANLILQDCVERIYFSEENKYAEEDRGIFMIRGENVVMLGEVDIDKEDQPLEAMERIPFKEAWLTKQKNDEKRFKEETHKGKKMARHGIVYDFHKSDMY
B2: Lsm2 (protein, UniProt P38203 1-95)
chain: MLFFSFFKTLVDQEVVVELKNDIEIKGTLQSVDQFLNLKLDNISCTDEKKYPHLGSVRNIFIRGSTVRYVYLNKNMVDTNLLQDATRREVMTERK
B3: Lsm6 (protein, UniProt Q06406 1-86)
chain: MSGKASTEGSVTTEFLSDIIGKTVNVKLASGLLYSGRLESIDGFMNVALSSATEHYESNNNKLLNKFNSDVFLRGTQVMYISEQKI
B4: Lsm7 (protein, UniProt P53905 1-115)
chain: MHQQHSKSENKPQQQRKKFEGPKREAILDLAKYKDSKIRVKLMGGKLVIGVLKGYDQLMNLVLDDTVEYMSNPDDENNTELISKNARKLGLTVIRGTILVSLSSAEGSDVLYMQK
B5: Lsm3 (protein, UniProt P57743 1-89)
chain: METPLDLLKLNLDERVYIKLRGARTLVGTLQAFDSHCNIVLSDAVETIYQLNNEELSESERRCEMVFIRGDTVTLISTPSEDDDGAVEI
B6: Lsm4 (protein, UniProt P40070 1-187)
chain: MLPLYLLTNAKGQQMQIELKNGEIIQGILTNVDNWMNLTLSNVTEYSEESAINSEDNAESSKAVKLNEIYIRGTFIKFIKLQDNIIDKVKQQINSNNNSNSNGPGHKRYYNNRDSNNNRGNYNRRNNNNGNSNRRPYSQNRQYNNSNSSNINNSINSINSNNQNMNNGLGGSVQHHFNSSSPQKVEF
B7: Lsm5 (protein, UniProt P40089 1-93)
chain: MSLPEILPLEVIDKTINQKVLIVLQSNREFEGTLVGFDDFVNVILEDAVEWLIDPEDESRNEKVMQHHGRMLLSGNNIAILVPGGKKTPTEAL
B8: Ecm33 (protein, UniProt P38248 20-406)
chain: ANSTTSIPSSCSIGTSATATAQADLDKISGCSTIVGNLTITGDLGSAALASIQEIDGSLTIFNSSSLSSFSADSIKKITGDLNMQELIILTSASFGSLQEVDSINMVTLPAISTFSTDLQNANNIIVSDTTLESVEGFSTLKKVNVFNINNNRYLNSFQSSLESVSDSLQFSSNGDNTTLAFDNLVWANNITLRDVNSISFGSLQTVNASLGFINNTLPSLNLTQLSKVGQSLSIVSNDELSKAAFSNLTTVGGGFIIANNTQLKVIDGFNKVQTVGGAIEVTGNFSTLDLSSLKSVRGGANFDSSSSNFSCNALKKLQSNGAIQGDSFVCKNGATSTSVKLSSTSTESSKSSATSSASSSGDASNAQANVSASASSSSSSSKKSKG
B9: Tom22 (protein, UniProt P49334 1-152)
chain: MVELTEIKDDVVQLDEPQFSRNQAIVEEKASATNNDVVDDEDDSDSDFEDEFDENETLLDRIVALKDIVPPGKRQTISNFFGFTSSFVRNAFTKSGNLAWTLTTTALLLGVPLSLSILAEQQLIEMEKTFDLQSDANNILAQGEKDAAATAN
B10: Zeo1 (protein, UniProt Q08245 1-113)
chain: MSEIQNKAETAAQDVQQKLEETKESLQNKGQEVKEQAEASIDNLKNEATPEAEQVKKEEQNIADGVEQKKTEAANKVEETKKQASAAVSEKKETKKEGGFLKKLNRKIASIFN
B11: Tim23 (protein, UniProt P32897 1-222)
chain: MSWLFGDKTPTDDANAAVGGQDTTKPKELSLKQSLGFEPNINNIISGPGGMHVDTARLHPLAGLDKGVEYLDLEEEQLSSLEGSQGLIPSRGWTDDLCYGTGAVYLLGLGIGGFSGMMQGLQNIPPNSPGKLQLNTVLNHITKRGPFLGNNAGILALSYNIINSTIDALRGKHDTAGSIGAGALTGALFKSSKGLKPMGYSSAMVAAACAVWCSVKKRLLEK

The first assay concerns the target T1, Mrn1 (endogenous MRN1 gene tagged with Sbp, TEV protease cleavage site and Halo-tag) (Saccharomyces cerevisiae). The experiment in a line: condition: only lysate of cells in fermentative growth; affinity purification with mass spectrometry; as a1, lysate of cells in fermentative growth only.
As for B1, the binding entry is given as “no binding”.

For the next assay the target is unchanged. The experiment in a line: affinity purification with mass spectrometry; as a1, lysate of cells in fermentative growth only.
B2: the binding entry was “no binding”. On the same count and under the same terms, for B3 the value was “no binding”; for B4, “no binding”; for B5, “no binding”. As for B6, the binding entry is “no binding”.

With B7, the binding result was “no binding”.

Another assay has the same target. The experiment in a line: affinity purification with mass spectrometry; lysates of cells in rich (fermentative) or low-glucose/respiratory media, cryogrinding, cross-linked ex vivo with 20 mM EDC; Halo-tagged Mrn1 captured covalently on Halo Magna beads 3 h at 4°C; washes with 8 M urea, 50 mM HEPES pH 7.5, 150 mM NaCl, 1% Triton X-100; TEV elution; TMT quantitative LC-MS against an mCherry control; single replicates.
Pir1 (from UniProt Q03178): the binding entry is listed as “binds”. The same measure, in the same setting: for Ssc1 (from UniProt P0CS90 24-654) the value was “binds”. Regarding B1, the binding entry is recorded as “binds”.

Consider B8, for which the binding entry was “binds”. Same read-out and setting: the entry for B9 is “binds”. Still for that read-out and setting: the entry for B10 is “binds”.

B11: the binding entry was “binds”.
